Assay results as given in PMC13128448.
No constants are given. Whether binding was seen depends on the method and setting. For some assays here: Binding seen in cells or lysates may run through a third protein. Some results given as binding are weak or reduced against the parent protein; the word gives no strength.

By UniProt entry, the sequences of proteins in these tests, tags left out.
UniProt Q9UBF6: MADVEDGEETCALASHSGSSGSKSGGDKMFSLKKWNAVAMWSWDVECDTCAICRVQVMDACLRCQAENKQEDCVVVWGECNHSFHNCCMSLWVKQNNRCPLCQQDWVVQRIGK
UniProt Q93034: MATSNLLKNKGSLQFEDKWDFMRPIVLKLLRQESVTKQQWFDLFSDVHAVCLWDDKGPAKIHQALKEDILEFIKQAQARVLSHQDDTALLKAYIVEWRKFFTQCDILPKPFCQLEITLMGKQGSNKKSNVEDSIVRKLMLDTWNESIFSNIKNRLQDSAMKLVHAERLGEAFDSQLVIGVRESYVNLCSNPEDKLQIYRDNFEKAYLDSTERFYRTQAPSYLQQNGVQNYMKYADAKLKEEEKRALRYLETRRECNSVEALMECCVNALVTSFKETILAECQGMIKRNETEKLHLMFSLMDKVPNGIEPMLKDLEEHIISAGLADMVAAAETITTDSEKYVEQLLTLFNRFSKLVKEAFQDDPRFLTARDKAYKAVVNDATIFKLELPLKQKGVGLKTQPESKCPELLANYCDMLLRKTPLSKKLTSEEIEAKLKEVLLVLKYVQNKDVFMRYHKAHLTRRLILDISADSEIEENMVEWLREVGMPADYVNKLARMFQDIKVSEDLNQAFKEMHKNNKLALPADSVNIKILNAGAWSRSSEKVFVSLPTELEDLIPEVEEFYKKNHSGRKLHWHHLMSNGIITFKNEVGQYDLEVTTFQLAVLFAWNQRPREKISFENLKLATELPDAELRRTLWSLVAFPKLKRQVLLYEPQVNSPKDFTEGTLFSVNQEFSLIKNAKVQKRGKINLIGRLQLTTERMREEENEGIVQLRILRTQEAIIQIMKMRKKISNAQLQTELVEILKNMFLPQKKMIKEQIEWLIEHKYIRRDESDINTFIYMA
UniProt Q92466: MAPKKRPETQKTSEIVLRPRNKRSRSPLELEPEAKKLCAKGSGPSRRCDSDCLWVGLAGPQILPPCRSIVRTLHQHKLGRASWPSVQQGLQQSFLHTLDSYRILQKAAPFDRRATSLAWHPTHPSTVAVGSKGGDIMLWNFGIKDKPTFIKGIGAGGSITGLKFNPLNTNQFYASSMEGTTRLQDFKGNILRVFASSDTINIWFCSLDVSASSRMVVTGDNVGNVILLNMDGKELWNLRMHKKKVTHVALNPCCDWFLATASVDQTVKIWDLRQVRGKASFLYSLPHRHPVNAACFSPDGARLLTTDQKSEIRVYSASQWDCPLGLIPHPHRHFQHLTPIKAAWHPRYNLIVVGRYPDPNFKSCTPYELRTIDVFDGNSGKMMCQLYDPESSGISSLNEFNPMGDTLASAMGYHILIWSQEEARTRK

How the values were obtained:
[1] = molecular target: RBX2 (chain of N8~CRL5) (human) (UniProt Q9UBF6); assay: cryo-EM structure; N8~CRLs (CRL1, CRL2, CRL3, CRL4A, CRL5) mixed with CSN^DM at a 3:1 ratio, 30 min on ice; no compound; both purified
[2] = molecular target: CUL5, neddylated (chain of N8~CRL5) (UniProt Q93034); assay: as above
HBTH-tagged CSN2 (human) = HBTH-tagged CSN2 (human) (UniProt P61201); assay: pull-down; streptavidin purification of HBTH-CSN2 complexes from cells with or without CSN5i-3, after in-cell formaldehyde cross-linking; immunoblotting

binding [1] | binding [2] | also measured | Substance
binds |  |  | CSN2, subunit of CSN (from UniProt P61201 1-443)
binds |  |  | CSN4, subunit of CSN (from UniProt Q9BT78 1-406)
 | binds |  | CSN5^DM (CSN5 E76A/D151N), subunit of CSN^DM (from UniProt Q92905 1-334) (enzyme)
 |  | binding (HBTH-tagged CSN2 (human)): binds | DDB2, endogenous (from UniProt Q92466 1-427)
 | binds |  | RBX2 (chain of N8~CRL5) (from UniProt Q9UBF6 1-113)
